Assay results reported in patent US6521814B1, “Use of ligands for treatment of diseases responsive to retinoids” (Institut National de la Santa et de la Recherche Medicale, priority 1997, dated 2003).
For at least one compound, name, drawing or mass did not settle the structure.

System: RARβ/RXRβ, RARβ/RXRγ and RXRβ/RXRγ double null mutant mice
Assay: Cocaine-induced hyperlocomotor activity, open field test
Type: in vivo, mouse
Conditions: 20 mg/kg intraperitoneal; open field 5 min, 25 min after injection; double null mutant males

COC(=O)[C@H]1[C@@H](OC(=O)c2ccccc2)C[C@@H]2CC[C@H]1N2C [cocaine]
cocaine-mediated increase of locomotion or rearings vs saline treated animals: No statistically significant cocaine-mediated increase
